Data source: PubChem BioAssay AID1259314 (Drosophila RNAi Screening Center, 2017)
Shown is a random part of about 3,100 reagents. Over the whole deposit, 289 (9.3%) were called active. 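Active includes both higher and lower ATP than plate average; check the z-score sign for direction.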 Reagent sequences are not shown. Not stated in the record: the amount of reagent.

- Purpose: 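Transmembrane protein genes affecting ATP after manganese overload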 (primary screen)
- System: Drosophila S2R+ cells
- Reagent: long dsRNA against Drosophila genes
- Duration: 5 days (4 days knock-down, then 1 day metal exposure)
- Challenge: manganese chloride added to 15 mM for 24 hours
- Measured: 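Luciferase ATP signal used as a proxy for viable cell number, reported as one averaged z-score per dsRNA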
- Direction: mean ATP z-score: higher = more ATP than the plate average, more viable cells under manganese
- Active means: 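Called active when the mean ATP z-score is above 1.5 or below -1.5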
- Calls: active = strong ATP change, up or down; inactive = no strong ATP change

gene,dsRNA,mean ATP z-score,Call
Eglp1,DRSC04502,-1.27,inactive
Toll-7,DRSC29640,0.273,inactive
Toll-7,DRSC39883,0.403,inactive
CG8399,DRSC07163,-0.681,inactive
CG8399,DRSC39793,-0.527,inactive
Ir52a,DRSC06262,-0.913,inactive
CG4480,DRSC02750,0.531,inactive
Tim17b1,DRSC12179,-1.24,inactive
Tim17b1,DRSC39766,-0.598,inactive
CG32263,DRSC22431,-1.38,inactive
CG32263,DRSC29009,-0.752,inactive
CG8026,DRSC07056,0.869,inactive
Cds,DRSC10938,-0.913,inactive
Mvl,DRSC16752,-0.411,inactive
Mvl,DRSC39671,-0.103,inactive
nan,DRSC10551,-1.41,inactive
nan,DRSC39690,-0.595,inactive
PGRP-SD,DRSC10856,0.27,inactive
CR33013,DRSC06286,-0.552,inactive
CR33013,DRSC25681,0.608,inactive
Marf,DRSC28101,-2.95,active
Sec61alpha,DRSC03256,1.63,active
ics,DRSC29655,0.633,inactive
Yif1,DRSC15817,0.00975,inactive
CG43066,DRSC06927,-0.395,inactive
CG43066,DRSC26570,2.28,active
Pex23,DRSC10323,1.38,inactive
Pex23,DRSC10645,-0.986,inactive
Pex23,DRSC28370,1.3,inactive
spict,DRSC02157,-1.1,inactive
spict,DRSC39463,-0.98,inactive
CG12446,DRSC20618,-0.365,inactive
mthl8,DRSC08211,2.75,active
mthl8,DRSC08311,2.01,active
CG4476,DRSC10424,-1.29,inactive
CG4476,DRSC25362,-0.0657,inactive
mthl13,DRSC05238,0.019,inactive
CG43693,DRSC09086,1.59,active
CG43693,DRSC10625,-0.967,inactive
CG9903,DRSC20213,-0.259,inactive
CG9903,DRSC39657,0.0208,inactive
CG1572,DRSC19686,1.26,inactive

Single entries from the entries so far.
Toll-7 [DRSC39883], mean ATP z-score → 0.403
CG4476 [DRSC25362], mean ATP z-score = -0.0657
Under “Call”, CG32263 [DRSC22431] shows inactive
Eglp1 [DRSC04502], mean ATP z-score: -1.27
For “Call”, Yif1 [DRSC15817] shows inactive
For “mean ATP z-score”, ics [DRSC29655] has 0.633

More reagents follow:
gene,dsRNA,mean ATP z-score,Call
polyph,DRSC06254,-0.472,inactive
Loxl2,DRSC04469,-0.745,inactive
CG17929,DRSC15291,-0.0437,inactive
CG17929,DRSC39673,0.278,inactive
ppk11,DRSC02737,-0.696,inactive
ATP6AP2,DRSC16420,-0.351,inactive
ATP6AP2,DRSC39882,-0.453,inactive
ifc,DRSC03549,0.56,inactive
ifc,DRSC39666,0.379,inactive
rumpel,DRSC18436,-0.451,inactive
rumpel,DRSC39504,0.524,inactive
klar,DRSC22393,0.298,inactive
Fas3,DRSC03326,-0.581,inactive
Fas3,DRSC22776,1.69,active
Fas3,DRSC28665,-1.24,inactive
CG30008,DRSC21576,-0.653,inactive
CG30008,DRSC27726,0.447,inactive
PGRP-LE,DRSC20137,0.672,inactive
CG12773,DRSC18580,0.502,inactive
CG12773,DRSC24900,0.0237,inactive
Nup153,DRSC19904,-1.99,active
List,DRSC06520,-0.177,inactive
List,DRSC39801,-0.12,inactive
Ir68b,DRSC10251,-0.889,inactive
Ir68b,DRSC39424,-1.14,inactive
CG40006,DRSC03787,-0.0441,inactive
CG40006,DRSC03814,0.205,inactive
ppk7,DRSC03236,-0.222,inactive
ppk29,DRSC04205,2.06,active
ppk29,DRSC39599,0.34,inactive
CHOp24,DRSC18310,0.58,inactive
CHOp24,DRSC39433,1.64,active
Gr58b,DRSC04140,-0.432,inactive
Gr58b,DRSC39737,0.164,inactive
CG34011,DRSC00888,0.0833,inactive
CG34011,DRSC39571,-0.443,inactive
Cse1,DRSC26857,-1.96,active
Rh5,DRSC03412,0.0236,inactive
Rh5,DRSC25429,1.62,active
CG5892,DRSC15910,-0.628,inactive
CG5892,DRSC24710,0.364,inactive
aralar1,DRSC16901,-0.457,inactive
aralar1,DRSC29693,-1.06,inactive
CG32795,DRSC18609,0.03,inactive
CG32795,DRSC18610,0.264,inactive
GluRIIE,DRSC13431,0.141,inactive
GluRIIE,DRSC39623,-0.887,inactive
ppk15,DRSC14733,-0.195,inactive
ppk15,DRSC27947,-2.4,active
CG7333,DRSC16229,1.61,active
CG5421,DRSC02858,-0.303,inactive
CG5421,DRSC24636,1.58,active
CG2076,DRSC19832,-1.74,active
CG2076,DRSC27047,-1.52,active
gogo,DRSC10070,-0.321,inactive
gogo,DRSC10071,-0.0489,inactive
Nrx-1,DRSC16184,-0.568,inactive
boi,DRSC18425,1.2,inactive
boi,DRSC25851,-0.0682,inactive
CG30048,DRSC22205,-0.0991,inactive
CG30048,DRSC39886,-0.588,inactive
GABA-B-R1,DRSC22038,0.0883,inactive
GABA-B-R1,DRSC39785,-0.217,inactive
CG17841,DRSC17737,1.56,active
CG17841,DRSC28821,1.1,inactive
mthl12,DRSC12964,-0.566,inactive
Oamb,DRSC13433,0.405,inactive
Oamb,DRSC15120,0.614,inactive
Oamb,DRSC16763,0.0978,inactive
